Measured values reported in PubChem BioAssay AID248 (DTP/NCI, 2004).
The list shows only some results of the screen, not a fair sample: it is rich in T/C values a quarter to a half above the control, in often repeated tests (any T/C) and in doses without a T/C. Other doses and runs of a compound stand elsewhere. T/C: endpoint of the treated group in % of that of the vehicle group. Some entries give survivors of the animals treated and no T/C: the source holds a T/C of zero for them, seemingly a mark for toxic or unscored doses. Some doses without a T/C left all or most animals alive at the check, yet need not have been tolerated: the source hardly ever lists a survival T/C far under the control, and the zero likely stands for such cases as well. Survivors were counted at the toxicity check, usually on the fifth day, unless a day is given; later deaths do not show. Schedule codes are those of the source, taken here to give the interval after Q, in days (D) or hours (H), and the number of doses after X. Some doses were run more than once; the results are listed from low to high. Some schedules carry Z or #; the key to these is not given. For survival time, this PubChem deposit counts one and a half times the control or more as active, and values a quarter to a half above the control carry no call in these data; other NCI protocols may use other cut-offs.

Test system: L1210 leukemia ip in BDF1 mice, survival T/C
Test: NCI In Vivo Anticancer Drug Screen. Data for tumor model L1210 Leukemia (intraperitoneal) in B6D2F1 (BDF1) mice
Settings: T/C endpoint: mean survival time, higher T/C = longer survival
[1] = dose: 3.0 mg/kg/injection, schedule: Q04DX003 (ip), vehicle: saline
[2] = dose: 50.0 mg/kg/injection, schedule: Q01DX009 (ip), vehicle: Klucel (hydroxypropylcellulose) (HPC)
[3] = dose: 100.0 mg/kg/injection, schedule: Q01DX009 (ip), vehicle: Klucel (hydroxypropylcellulose) (HPC)
[4] = dose: 200.0 mg/kg/injection, schedule: Q01DX009 (ip), vehicle: Klucel (hydroxypropylcellulose) (HPC)
[5] = dose: 400.0 mg/kg/injection, schedule: Q01DX009 (ip), vehicle: Klucel (hydroxypropylcellulose) (HPC)
[6] = dose: 300.0 mg/kg/injection, schedule: Q01DX001 (ip), vehicle: saline
[7] = dose: 400.0 mg/kg/injection, schedule: Q04DX003 (ip), vehicle: saline with Tween-80
[8] = dose: 100.0 mg/kg/injection, schedule: Q01DX009 (ip), vehicle: saline
[9] = dose: 100.0 mg/kg/injection, schedule: Q01DX009 (ip), vehicle: saline with Tween-80
[10] = dose: 100.0 mg/kg/injection, schedule: Q04DX003 (ip), vehicle: saline with Tween-80
[11] = dose: 200.0 mg/kg/injection, schedule: Q04DX003 (ip), vehicle: saline with Tween-80
[12] = dose: 100.0 mg/kg/injection, schedule: Q04DX003 (ip), vehicle: Klucel (hydroxypropylcellulose) (HPC)
[13] = dose: 200.0 mg/kg/injection, schedule: Q04DX003 (ip), vehicle: Klucel (hydroxypropylcellulose) (HPC)
[14] = dose: 400.0 mg/kg/injection, schedule: Q04DX003 (ip), vehicle: Klucel (hydroxypropylcellulose) (HPC)
[15] = dose: 200.0 mg/kg/injection, schedule: Q04DX003 (ip), vehicle: saline
[16] = dose: 400.0 mg/kg/injection, schedule: Q04DX003 (ip), vehicle: saline
[17] = dose: 200.0 mg/kg/injection, schedule: Q01DX001 (ip), vehicle: saline
[18] = dose: 400.0 mg/kg/injection, schedule: Q01DX001 (ip), vehicle: saline

In the case of `CN(C)[C@@H]1C(=O)C(C(=O)NCN2CCN(C(=N)N=C(N)N)CC2)=C(O)[C@@]2(O)C(=O)C3=C(O)c4c(O)cccc4[C@@](C)(O)[C@H]3C[C@@H]12`, the survivor count (dose: 9.37 mg/kg/injection, schedule: Q01DX001 (ip), vehicle: saline) is reported as 0 of 6, the survivor count (dose: 18.75 mg/kg/injection, schedule: Q01DX001 (ip), vehicle: saline) is reported as 0 of 6 and the survivor count (dose: 37.5 mg/kg/injection, schedule: Q01DX001 (ip), vehicle: saline) is reported as 0 of 6.

With `O=C(O)c1ccccc1-c1ccc([N+](=O)[O-])cc1Cl` the survivor count (dose: 600.0 mg/kg/injection, schedule: Q01DX001 (ip), vehicle: carboxymethylcellulose (CMC)) was 0 of 6.

With `CN(C)C1=C(N2CC2)C(=O)C(N(C)C)=C(N2CC2)C1=O` the T/C (dose: 0.18 mg/kg/injection, schedule: Q04DX003 (ip), vehicle: saline) was 97, 103, 108, 138 % of control, the T/C (dose: 0.37 mg/kg/injection, schedule: Q04DX003 (ip), vehicle: saline) was 106, 108, 111, 151 % of control and the T/C (dose: 0.75 mg/kg/injection, schedule: Q01DX009 (ip), vehicle: saline) was 139 % of control. For the same compound, the T/C (dose: 0.75 mg/kg/injection, schedule: Q04DX003 (ip), vehicle: saline) was 97, 101, 124, 151 % of control, the survivor count (dose: 1.5 mg/kg/injection, schedule: Q01DX009 (ip), vehicle: saline) was 6 of 6 and the T/C (dose: 1.5 mg/kg/injection, schedule: Q04DX003 (ip), vehicle: saline) was 98, 137, 152, 156 % of control. The T/C [1] was 138, 173, 220 % of control, the survivor count [1] was 5 of 6 and the survivor count (dose: 6.0 mg/kg/injection, schedule: Q04DX003 (ip), vehicle: saline) was 2 of 6 and 6 of 6.

With `O=[N+]([O-])c1ccc(C(O)C=C(C(F)(F)F)C(F)(F)F)cc1` (centres undefined) the survivor count [2] was 6 of 6, the survivor count [3] was 5 of 6 and the survivor count [4] was 1 of 6. For the same compound, the survivor count [5] was 1 of 6.

For `Nc1nc2c(ncn2-c2ccc(OCCCOc3ccc(S(=O)(=O)F)cc3)cc2)c(=O)[nH]1`, the survivor count (dose: 400.0 mg/kg/injection, schedule: Q01DX001 (ip), vehicle: Klucel (hydroxypropylcellulose) (HPC)) was 6 of 6.

For `C[N+](C)(C)C1/C=C(/Cl)CC/C=C(/Cl)C1` (centres undefined), the survivor count (dose: 75.0 mg/kg/injection, schedule: Q01DX001 (ip), vehicle: saline) was 0 of 6, the survivor count (dose: 150.0 mg/kg/injection, schedule: Q01DX001 (ip), vehicle: saline) was 0 of 6 and the survivor count [6] was 0 of 6.

In the case of `CCC(=O)CC1CCCC(CC(=O)CC)N1` (centres undefined), the survivor count [6] is reported as 0 of 6.

For `CS(=O)(=O)c1nc2ccccc2[nH]1`, the survivor count (dose: 400.0 mg/kg/injection, schedule: Q04DX002 (ip), vehicle: Klucel (hydroxypropylcellulose) (HPC)) was 3 of 3.

With `c1ccc2c(c1)CCc1ccccc1CN(CCN1CCCC1)C2` the survivor count [2] was 6 of 6.

`CCCCCCCCCCCCCCCCCCN1C(=O)C2C(C1=O)C1(Cl)C(Cl)=C(Cl)C2(Cl)C1(Cl)Cl` (centres undefined) was tested, and the survivor count [7] was 6 of 6.

`COC(=O)c1cc(=O)c2cc(C(C)=O)ccc2[nH]1` was tested, and the survivor count (dose: 100.0 mg/kg/injection, schedule: Q01DX001 (ip), vehicle: other) was 6 of 6.

`CCCCCCCCc1cc[n+](C2=C([O-])c3ccccc3C(=O)C2=O)cc1` was tested, and the survivor count (dose: 50.0 mg/kg/injection, schedule: Q01DX009 (ip), vehicle: saline) was 0 of 6, the survivor count [8] was 0 of 6 and the survivor count (dose: 200.0 mg/kg/injection, schedule: Q01DX009 (ip), vehicle: saline) was 0 of 6.

For `N#CSc1ccc(NN)cc1`, the survivor count (dose: 50.0 mg/kg/injection, schedule: Q01DX009 (ip), vehicle: saline with Tween-80) was 3 of 6, the survivor count (dose: 50.0 mg/kg/injection, schedule: Q04DX003 (ip), vehicle: saline with Tween-80) was 6 of 6 and the survivor count [9] was 0 of 6. For the same compound, the survivor count [10] was 0 of 6 and 1 of 6, the survivor count [11] was 0 of 6 and the survivor count [7] was 0 of 6.

`C=CCC[P+](c1ccccc1)(c1ccccc1)c1ccccc1` was tested, and the T/C (dose: 25.0 mg/kg/injection, schedule: Q04DX003 (ip), vehicle: Klucel (hydroxypropylcellulose) (HPC)) was 125 % of control, the survivor count [12] was 1 of 6 and the survivor count [13] was 0 of 6. The survivor count [14] was 0 of 6.

For `ClCc1nc(-c2ccco2)no1`, the survivor count [4] was 2 of 6 and the survivor count [5] was 0 of 6.

For `Nn1c(=O)[nH][nH]c1=O`, the survivor count [5] was 0 of 6 and the survivor count [14] was 0 of 6.

In the case of `COc1cccc(/C=N/NC(=O)C[n+]2ccccc2)c1OC`, the survivor count [9] is reported as 3 of 6, the survivor count [11] is reported as 0 of 6 and the survivor count [7] is reported as 0 of 6.

`CN=Cc1ccccc1` was tested, and the survivor count [11] was 6 of 6.

In the case of `CC1(C)N=C(N)N=C(N)N1c1ccc2c(Cl)c(Cl)ccc2c1`, the survivor count [11] is reported as 1 of 6 and the survivor count [7] is reported as 0 of 6.

With `NC(N)=Nc1ccc(C(=O)Oc2ccc([N+](=O)[O-])cc2[N+](=O)[O-])cc1` the survivor count [12] was 0 of 6, the survivor count [4] was 0 of 6 and the survivor count [13] was 0 of 6. The survivor count [14] was 0 of 6.

`CC(C)(C)c1ccc(N)cc1` was tested, and the survivor count (dose: 100.0 mg/kg/injection, schedule: Q04DX003 (ip), vehicle: saline) was 3 of 3, the survivor count [15] was 3 of 3 and the survivor count [16] was 2 of 3.

For `C=CCCC1CC(C(C)C)CC2(C1)OCCO2` (centres undefined), the survivor count (dose: 200.0 mg/kg/injection, schedule: Q01DX009 (ip), vehicle: saline with Tween-80) was 3 of 3.

For `C=CCCCCCCCCC(N)=O`, the T/C [9] was 149 % of control.

In the case of `Cc1cccnc1C`, the T/C (dose: 20.0 mg/kg/injection, schedule: Q04DX003 (ip), vehicle: saline) is reported as 131 % of control, the survivor count [15] is reported as 6 of 6 and the survivor count [16] is reported as 1 of 6.

`CCOc1ccc(/C=N/N=C(N)N)cc1OCC` was tested, and the survivor count (dose: 500.0 mg/kg/injection, schedule: Q01DX Z (oral), vehicle: saline) was 0 of 6 and 1 of 7, the survivor count (dose: 1000.0 mg/kg/injection, schedule: Q01DX Z (oral), vehicle: saline) was 0 of 7 and the survivor count (dose: 2000.0 mg/kg/injection, schedule: Q01DX Z (oral), vehicle: saline) was 0 of 7. For the same compound, the survivor count (dose: 4000.0 mg/kg/injection, schedule: Q01DX Z (oral), vehicle: saline) was 0 of 7.

`CC(=O)OCC1CC2CC(O)C1C2` (centres undefined) was tested, and the survivor count (dose: 150.0 mg/kg/injection, schedule: Q01DX001 (ip), vehicle: acetone) was 1 of 6 and the survivor count (dose: 300.0 mg/kg/injection, schedule: Q01DX001 (ip), vehicle: acetone) was 0 of 6.

For `CCCSCCN=C(N)C(N)=NCCSCCC`, the survivor count (dose: 200.0 mg/kg/injection, schedule: Q04DX002 (ip), vehicle: saline with Tween-80) was 0 of 3 and the survivor count (dose: 400.0 mg/kg/injection, schedule: Q04DX002 (ip), vehicle: saline with Tween-80) was 0 of 3.

In the case of `CCC1(CC)C(=O)NC(=NCCCC(N)C(=O)O)NC1=O` (centres undefined), the survivor count (dose: 300.0 mg/kg/injection, schedule: Q01DX001 (ip), vehicle: carboxymethylcellulose (CMC)) is reported as 1 of 6.

For `CCN(CC)CCCOC(=O)c1ccc(NC(C)(C)[N+](=O)[O-])cc1`, the survivor count [8] was 1 of 6, the survivor count [17] was 0 of 6 and the survivor count [18] was 0 of 6.

For `CCOCc1nc2nc(Cl)c(Cl)nc2[nH]1`, the survivor count [10] was 6 of 6 and the survivor count [7] was 4 of 6.

In the case of `C=CCN1C(=O)C2C3C=CC(C3)C2C1=O` (centres undefined), the T/C (dose: 12.0 mg/kg/injection, schedule: Q04DX002 (ip), vehicle: Klucel (hydroxypropylcellulose) (HPC)) is reported as 125 % of control.

In the case of `O=S(=O)(O)CNc1cc(Cl)cc(Cl)c1`, the survivor count [3] is reported as 6 of 6.

For `NC(=S)NN=C1CCN(Cc2ccccc2)CC1`, the survivor count [17] was 0 of 4 and the survivor count [18] was 0 of 4.
